# Measured values as given in US20260109761A1.
# No constants are given. Whether binding was seen depends on the method and setting. Some results given as binding are weak or reduced against the parent protein; the word gives no strength.
# Biological target: huZIP12-ECD-GST (human) (UniProt Q504Y0)
# Assay: SPR single cycle kinetics, mAb captured on protein A, 3.12-800 nM huZIP12-ECD-GST
row,Binder,binding
1,"H2_Y60K_L2 (antibody, V domains shown) VH: QVQLVESGGGVVQPGRSLRLSCAASGFTFSDYGMHWVRQAPGKGLEWVAYISSGGTTIYKADTVKGRFTISRDNSKNTLYLQMNSLRAEDTAVYYCARWTNLYAMDYWGQGTTVTVSS VL: DIVLTQSPDSLAVSLGERATINCRASKSVSTSGYSYMHWYQQKPGQPPKFLIYLASNKESGVPDRFSGSGSGTDFTLTISSLQAEDVAVYYCQHSREVPYTFGGGTKVEIKR",binds
2,"H2_G66Q_VL-par (antibody, V domains shown) VH: QVQLVESGGGVVQPGRSLRLSCAASGFTFSDYGMHWVRQAPGKGLEWVAYISSGGTTIYYADTVKQRFTISRDNSKNTLYLQMNSLRAEDTAVYYCARWTNLYAMDYWGQGTTVTVSS VL: DIVLTQSPDSLAVSLGERATINCRASKSVSTSGYSYMHWYQQKPGQPPKFLIYLASNLESGVPDRFSGSGSGTDFTLTISSLQAEDVAVYYCQHSREVPYTFGGGTKVEIKR",binds
3,"H2_G66Q_L1 (antibody, V domains shown) VH: QVQLVESGGGVVQPGRSLRLSCAASGFTFSDYGMHWVRQAPGKGLEWVAYISSGGTTIYYADTVKQRFTISRDNSKNTLYLQMNSLRAEDTAVYYCARWTNLYAMDYWGQGTTVTVSS VL: DIVLTQSPDSLAVSLGERATINCRASKSVSTQGYSYMHWYQQKPGQPPKFLIYLASNLESGVPDRFSGSGSGTDFTLTISSLQAEDVAVYYCQHSREVPYTFGGGTKVEIKR",binds
4,"H2_K65P_L1 (antibody, V domains shown) VH: QVQLVESGGGVVQPGRSLRLSCAASGFTFSDYGMHWVRQAPGKGLEWVAYISSGGTTIYYADTVPGRFTISRDNSKNTLYLQMNSLRAEDTAVYYCARWTNLYAMDYWGQGTTVTVSS VL: DIVLTQSPDSLAVSLGERATINCRASKSVSTQGYSYMHWYQQKPGQPPKFLIYLASNLESGVPDRFSGSGSGTDFTLTISSLQAEDVAVYYCQHSREVPYTFGGGTKVEIKR",binds
5,"H3_M105P_L2 (antibody, V domains shown) VH: QVQLVESGGGVVQPGRSLRLSCAASGFTFSDYGMHWVRQAPGKGLEWVAYISSGGTTIYYADTVKGRFTISRDNSKNTLYLQMNSLRAEDTAVYYCARWTNLYAPDYWGQGTTVTVSS VL: DIVLTQSPDSLAVSLGERATINCRASKSVSTSGYSYMHWYQQKPGQPPKFLIYLASNKESGVPDRFSGSGSGTDFTLTISSLQAEDVAVYYCQHSREVPYTFGGGTKVEIKR",binds
6,"H2_T56H_L1 (antibody, V domains shown) VH: QVQLVESGGGVVQPGRSLRLSCAASGFTFSDYGMHWVRQAPGKGLEWVAYISSGGHTIYYADTVKGRFTISRDNSKNTLYLQMNSLRAEDTAVYYCARWTNLYAMDYWGQGTTVTVSS VL: DIVLTQSPDSLAVSLGERATINCRASKSVSTQGYSYMHWYQQKPGQPPKFLIYLASNLESGVPDRFSGSGSGTDFTLTISSLQAEDVAVYYCQHSREVPYTFGGGTKVEIKR",binds
7,"H2_T63Y_VL-par (antibody, V domains shown) VH: QVQLVESGGGVVQPGRSLRLSCAASGFTFSDYGMHWVRQAPGKGLEWVAYISSGGTTIYYADYVKGRFTISRDNSKNTLYLQMNSLRAEDTAVYYCARWTNLYAMDYWGQGTTVTVSS VL: DIVLTQSPDSLAVSLGERATINCRASKSVSTSGYSYMHWYQQKPGQPPKFLIYLASNLESGVPDRFSGSGSGTDFTLTISSLQAEDVAVYYCQHSREVPYTFGGGTKVEIKR",binds
8,"H2_K65P_L2 (antibody, V domains shown) VH: QVQLVESGGGVVQPGRSLRLSCAASGFTFSDYGMHWVRQAPGKGLEWVAYISSGGTTIYYADTVPGRFTISRDNSKNTLYLQMNSLRAEDTAVYYCARWTNLYAMDYWGQGTTVTVSS VL: DIVLTQSPDSLAVSLGERATINCRASKSVSTSGYSYMHWYQQKPGQPPKFLIYLASNKESGVPDRFSGSGSGTDFTLTISSLQAEDVAVYYCQHSREVPYTFGGGTKVEIKR",binds
9,"H2_G66Q_L2 (antibody, V domains shown) VH: QVQLVESGGGVVQPGRSLRLSCAASGFTFSDYGMHWVRQAPGKGLEWVAYISSGGTTIYYADTVKQRFTISRDNSKNTLYLQMNSLRAEDTAVYYCARWTNLYAMDYWGQGTTVTVSS VL: DIVLTQSPDSLAVSLGERATINCRASKSVSTSGYSYMHWYQQKPGQPPKFLIYLASNKESGVPDRFSGSGSGTDFTLTISSLQAEDVAVYYCQHSREVPYTFGGGTKVEIKR",binds
10,"H2_T56H_L2 (antibody, V domains shown) VH: QVQLVESGGGVVQPGRSLRLSCAASGFTFSDYGMHWVRQAPGKGLEWVAYISSGGHTIYYADTVKGRFTISRDNSKNTLYLQMNSLRAEDTAVYYCARWTNLYAMDYWGQGTTVTVSS VL: DIVLTQSPDSLAVSLGERATINCRASKSVSTSGYSYMHWYQQKPGQPPKFLIYLASNKESGVPDRFSGSGSGTDFTLTISSLQAEDVAVYYCQHSREVPYTFGGGTKVEIKR",binds
11,"H2_T56H_VL-par (antibody, V domains shown) VH: QVQLVESGGGVVQPGRSLRLSCAASGFTFSDYGMHWVRQAPGKGLEWVAYISSGGHTIYYADTVKGRFTISRDNSKNTLYLQMNSLRAEDTAVYYCARWTNLYAMDYWGQGTTVTVSS VL: DIVLTQSPDSLAVSLGERATINCRASKSVSTSGYSYMHWYQQKPGQPPKFLIYLASNLESGVPDRFSGSGSGTDFTLTISSLQAEDVAVYYCQHSREVPYTFGGGTKVEIKR",binds

# The next lines start with the values.
row,binding,Binder
1,binds,"H2_T57H_L1 (antibody, V domains shown) VH: QVQLVESGGGVVQPGRSLRLSCAASGFTFSDYGMHWVRQAPGKGLEWVAYISSGGTHIYYADTVKGRFTISRDNSKNTLYLQMNSLRAEDTAVYYCARWTNLYAMDYWGQGTTVTVSS VL: DIVLTQSPDSLAVSLGERATINCRASKSVSTQGYSYMHWYQQKPGQPPKFLIYLASNLESGVPDRFSGSGSGTDFTLTISSLQAEDVAVYYCQHSREVPYTFGGGTKVEIKR"
2,binds,"H2_Y60K_L1 (antibody, V domains shown) VH: QVQLVESGGGVVQPGRSLRLSCAASGFTFSDYGMHWVRQAPGKGLEWVAYISSGGTTIYKADTVKGRFTISRDNSKNTLYLQMNSLRAEDTAVYYCARWTNLYAMDYWGQGTTVTVSS VL: DIVLTQSPDSLAVSLGERATINCRASKSVSTQGYSYMHWYQQKPGQPPKFLIYLASNLESGVPDRFSGSGSGTDFTLTISSLQAEDVAVYYCQHSREVPYTFGGGTKVEIKR"
3,binds,"H3_M105P_VL-par (antibody, V domains shown) VH: QVQLVESGGGVVQPGRSLRLSCAASGFTFSDYGMHWVRQAPGKGLEWVAYISSGGTTIYYADTVKGRFTISRDNSKNTLYLQMNSLRAEDTAVYYCARWTNLYAPDYWGQGTTVTVSS VL: DIVLTQSPDSLAVSLGERATINCRASKSVSTSGYSYMHWYQQKPGQPPKFLIYLASNLESGVPDRFSGSGSGTDFTLTISSLQAEDVAVYYCQHSREVPYTFGGGTKVEIKR"
4,binds,"51B12_VH_L2 (antibody, V domains shown) VH: QVQLVESGGGVVQPGRSLRLSCAASGFTFSDYGMHWVRQAPGKGLEWVAYISSGGTTIYYADTVKGRFTISRDNSKNTLYLQMNSLRAEDTAVYYCARWTNLYAMDYWGQGTTVTVSS VL: DIVLTQSPDSLAVSLGERATINCRASKSVSTSGYSYMHWYQQKPGQPPKFLIYLASNKESGVPDRFSGSGSGTDFTLTISSLQAEDVAVYYCQHSREVPYTFGGGTKVEIKR"
5,binds,"H2_T57H_L2 (antibody, V domains shown) VH: QVQLVESGGGVVQPGRSLRLSCAASGFTFSDYGMHWVRQAPGKGLEWVAYISSGGTHIYYADTVKGRFTISRDNSKNTLYLQMNSLRAEDTAVYYCARWTNLYAMDYWGQGTTVTVSS VL: DIVLTQSPDSLAVSLGERATINCRASKSVSTSGYSYMHWYQQKPGQPPKFLIYLASNKESGVPDRFSGSGSGTDFTLTISSLQAEDVAVYYCQHSREVPYTFGGGTKVEIKR"
6,binds,"H2_Y60K_VL-par (antibody, V domains shown) VH: QVQLVESGGGVVQPGRSLRLSCAASGFTFSDYGMHWVRQAPGKGLEWVAYISSGGTTIYKADTVKGRFTISRDNSKNTLYLQMNSLRAEDTAVYYCARWTNLYAMDYWGQGTTVTVSS VL: DIVLTQSPDSLAVSLGERATINCRASKSVSTSGYSYMHWYQQKPGQPPKFLIYLASNLESGVPDRFSGSGSGTDFTLTISSLQAEDVAVYYCQHSREVPYTFGGGTKVEIKR"
7,binds,"51B12_VH_L1 (antibody, V domains shown) VH: QVQLVESGGGVVQPGRSLRLSCAASGFTFSDYGMHWVRQAPGKGLEWVAYISSGGTTIYYADTVKGRFTISRDNSKNTLYLQMNSLRAEDTAVYYCARWTNLYAMDYWGQGTTVTVSS VL: DIVLTQSPDSLAVSLGERATINCRASKSVSTQGYSYMHWYQQKPGQPPKFLIYLASNLESGVPDRFSGSGSGTDFTLTISSLQAEDVAVYYCQHSREVPYTFGGGTKVEIKR"
8,binds,"H2_T57H_VL-par (antibody, V domains shown) VH: QVQLVESGGGVVQPGRSLRLSCAASGFTFSDYGMHWVRQAPGKGLEWVAYISSGGTHIYYADTVKGRFTISRDNSKNTLYLQMNSLRAEDTAVYYCARWTNLYAMDYWGQGTTVTVSS VL: DIVLTQSPDSLAVSLGERATINCRASKSVSTSGYSYMHWYQQKPGQPPKFLIYLASNLESGVPDRFSGSGSGTDFTLTISSLQAEDVAVYYCQHSREVPYTFGGGTKVEIKR"
9,binds,"H3_M105P_L1 (antibody, V domains shown) VH: QVQLVESGGGVVQPGRSLRLSCAASGFTFSDYGMHWVRQAPGKGLEWVAYISSGGTTIYYADTVKGRFTISRDNSKNTLYLQMNSLRAEDTAVYYCARWTNLYAPDYWGQGTTVTVSS VL: DIVLTQSPDSLAVSLGERATINCRASKSVSTQGYSYMHWYQQKPGQPPKFLIYLASNLESGVPDRFSGSGSGTDFTLTISSLQAEDVAVYYCQHSREVPYTFGGGTKVEIKR"
10,binds,"H2_T63Y_L1 (antibody, V domains shown) VH: QVQLVESGGGVVQPGRSLRLSCAASGFTFSDYGMHWVRQAPGKGLEWVAYISSGGTTIYYADYVKGRFTISRDNSKNTLYLQMNSLRAEDTAVYYCARWTNLYAMDYWGQGTTVTVSS VL: DIVLTQSPDSLAVSLGERATINCRASKSVSTQGYSYMHWYQQKPGQPPKFLIYLASNLESGVPDRFSGSGSGTDFTLTISSLQAEDVAVYYCQHSREVPYTFGGGTKVEIKR"
11,binds,"H2_T63Y_L2 (antibody, V domains shown) VH: QVQLVESGGGVVQPGRSLRLSCAASGFTFSDYGMHWVRQAPGKGLEWVAYISSGGTTIYYADYVKGRFTISRDNSKNTLYLQMNSLRAEDTAVYYCARWTNLYAMDYWGQGTTVTVSS VL: DIVLTQSPDSLAVSLGERATINCRASKSVSTSGYSYMHWYQQKPGQPPKFLIYLASNKESGVPDRFSGSGSGTDFTLTISSLQAEDVAVYYCQHSREVPYTFGGGTKVEIKR"
